According to US20190212344A1, “BIOMARKERS FOR USE IN DETERMINING RESPONSE TO TREATMENT OF NEURODEGENERATION DISEASE” (The Board of Trustees of the Leland Stanford Junior …, priority 2016, published 2019):
Not every detail of the peptide structures is certain; ends, links or a residue may be inferred. Marks after values point to notes of the source that are not given here. Residues, ends and D or L forms follow the SMILES beside them.

Tested on: mtHtt
Assay: Immunohistochemical staining of mtHtt aggregates (EM-48) in skeletal muscle and skin
Type: in vivo, mouse
Details: for mtHtt staining / decreased levels of mtHtt aggregates: R6/2 mice; for mtHtt staining: mean ± SEM of image quantification; for decreased levels of mtHtt aggregates: 8-wk P110 treatment vs TAT

Q: What does the source list for `CC(C)C[C@H](NC(=O)[C@H](CC(=O)O)NC(=O)CNC(=O)CNC(=O)[C@H](CCCNC(=N)N)NC(=O)[C@H](CCCNC(=N)N)NC(=O)[C@H](CCCNC(=N)N)NC(=O)[C@H](CCC(N)=O)NC(=O)[C@H](CCCNC(=N)N)NC(=O)[C@H](CCCNC(=N)N)NC(=O)[C@H](CCCCN)NC(=O)[C@H](CCCCN)NC(=O)[C@H](CCCNC(=N)N)NC(=O)CNC(=O)[C@@H](N)Cc1ccc(O)cc1)C(=O)N[C@@H](CC(C)C)C(=O)N1CCC[C@H]1C(=O)N[C@@H](CCCNC(=N)N)C(=O)NCC(=O)N[C@@H](CO)C(=O)O` [P110] (H-YGRKKRRQRRRGGDLLPRGS-OH)?
A: mtHtt staining (Muscle): 57.1 ± 0.6^c; mtHtt aggregation in sections (images) (R6/2 skeletal muscle sections, EM-48 antibody, FIG. 5): reduces mtHtt aggregation; mtHtt aggregates in sections (images) (R6/2 skin sections, FIG. 6): reduced the level of mtHtt aggregates; mtHtt staining (Skin): 85.7 ± 3.5^f; decreased levels of mtHtt aggregates (muscle tissue): 60%; decreased levels of mtHtt aggregates (skin): 40%
